Experimental data: PubChem BioAssay AID652243 (Drosophila RNAi Screening Center, 2013)
In all, the deposit lists about 24,000 reagents; below is an unselected part of those with a known target gene and a result. Of all reagents, 246 (1%) are marked active. 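Plates not normalised; calls are printed but the firefly/Renilla ratio behind them is not deposited; fold cut for lowering reported inconsistently.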 Raw values vary from plate to plate and are shown uncorrected. A plus sign joins genes that one reagent is predicted to hit. The record does not give: the amount of reagent.

- Aim: 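Knock-downs that decrease or increase androgen receptor reporter signal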 (primary screen)
- System: Drosophila S2R+ cells
- Reagent: long dsRNA against Drosophila genes
- Timing: 72 h (48 h, then 24 h hormone)
- Treatment: synthetic androgen R1881 at 10 nM for 24 h
- Measurement: 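Firefly light from an androgen-responsive reporter and Renilla control light per well, raw and unnormalised, for each of two replicates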
- Direction: firefly reporter light: higher = more light from androgen-responsive reporter; Renilla control light: higher = more constitutive control signal (cell number, transfection)
- Rule for the call: 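Hit when the log firefly-to-Renilla ratio dropped or increased by a fixed fold versus the mean of GFP or LacZ controls across duplicate plates; lowering cut given as 1.5 and as 3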
- Calls: active = hit: reporter lowered or raised; inactive = no hit

gene knocked down | dsRNA | firefly reporter light, replicate 1 | firefly reporter light, replicate 2 | Renilla control light, replicate 1 | Renilla control light, replicate 2 | outcome
CG2608 | DRSC02709 | 5.95e5 | 7.60e5 | 1.06e6 | 1.21e6 | inactive
Cyp305a1 (Cytochrome P450 305a1) | DRSC11126 | 17748 | 17743 | 1.61e5 | 2.03e5 | inactive
PEK (pancreatic eIF-2alpha kinase) | DRSC12361 | 30668 | 54639 | 3.29e5 | 2.35e5 | active
PEK (pancreatic eIF-2alpha kinase) | DRSC36912 | – | – | – | – | inactive
PEK (pancreatic eIF-2alpha kinase) | DRSC36913 | – | – | – | – | inactive
CtsK2 (Cathepsin K2) | DRSC06897 | 8.84e5 | 1.11e6 | 1.22e6 | 1.08e6 | inactive
CtsK2 (Cathepsin K2) | DRSC25927 | 5.56e5 | 4.56e5 | 9.97e5 | 9.46e5 | inactive
Ssb-c31a (Single stranded-binding protein c31A) | DRSC03443 | 2.43e5 | 3.24e5 | 2.20e6 | 2.21e6 | inactive
Ssb-c31a (Single stranded-binding protein c31A) | DRSC28004 | 5.29e5 | 4.85e5 | 1.55e6 | 1.08e6 | inactive
CG14797 | DRSC17955 | 2.30e5 | 2.47e5 | 4.34e6 | 3.37e6 | inactive
TBC1D23 (TBC1 domain family member 23) | DRSC00657 | 92311 | 1.35e5 | 8.60e5 | 7.85e5 | inactive
TBC1D23 (TBC1 domain family member 23) | DRSC30084 | 7.10e5 | 6.94e5 | 1.09e6 | 1.11e6 | inactive
Cyp4d14 (Cytochrome P450 4d14) | DRSC18457 | 2.88e5 | 3.14e5 | 3.43e6 | 2.85e6 | inactive
Cyp4d14 (Cytochrome P450 4d14) | DRSC24460 | 3.89e5 | 4.50e5 | 3.81e5 | 4.45e5 | inactive
CG43078 | DRSC10292 | 6.05e5 | 7.57e5 | 9.58e5 | 1.55e6 | inactive
CG43078 | DRSC10608 | 8.84e5 | 1.06e6 | 1.44e6 | 1.58e6 | inactive
CG43078 | DRSC21541 | 8.13e5 | 5.65e5 | 1.54e6 | 1.44e6 | inactive
CG43078 | DRSC22327 | 6.55e5 | 6.80e5 | 2.63e6 | 1.74e6 | inactive
CG43078 | DRSC27481 | 3.55e5 | 3.62e5 | 5.98e5 | 5.27e5 | inactive
Usp15-31 (Ubiquitin specific protease 15/31) | DRSC04426 | 6.56e5 | 9.15e5 | 1.59e6 | 1.50e6 | inactive
Usp15-31 (Ubiquitin specific protease 15/31) | DRSC24986 | 8.26e5 | 8.20e5 | 8.49e5 | 9.72e5 | inactive
mxc (multi sex combs) | DRSC17819 | 2.04e5 | 2.86e5 | 2.27e6 | 2.67e6 | inactive
CG3594 | DRSC04393 | 5.41e5 | 6.00e5 | 8.46e5 | 1.37e6 | inactive
CG3594 | DRSC21959 | 4.25e5 | 4.43e5 | 1.25e6 | 9.74e5 | inactive

11 entries already listed, ordered by “firefly reporter light, replicate 1”, ascending:
gene knocked down | dsRNA | firefly reporter light, replicate 1 | firefly reporter light, replicate 2 | Renilla control light, replicate 1 | Renilla control light, replicate 2 | outcome
mxc (multi sex combs) | DRSC17819 | 2.04e5 | 2.86e5 | 2.27e6 | 2.67e6 | inactive
Cyp4d14 (Cytochrome P450 4d14) | DRSC18457 | 2.88e5 | 3.14e5 | 3.43e6 | 2.85e6 | inactive
CG43078 | DRSC27481 | 3.55e5 | 3.62e5 | 5.98e5 | 5.27e5 | inactive
Cyp4d14 (Cytochrome P450 4d14) | DRSC24460 | 3.89e5 | 4.50e5 | 3.81e5 | 4.45e5 | inactive
CG43078 | DRSC10292 | 6.05e5 | 7.57e5 | 9.58e5 | 1.55e6 | inactive
CG43078 | DRSC22327 | 6.55e5 | 6.80e5 | 2.63e6 | 1.74e6 | inactive
Usp15-31 (Ubiquitin specific protease 15/31) | DRSC04426 | 6.56e5 | 9.15e5 | 1.59e6 | 1.50e6 | inactive
TBC1D23 (TBC1 domain family member 23) | DRSC30084 | 7.10e5 | 6.94e5 | 1.09e6 | 1.11e6 | inactive
CG43078 | DRSC21541 | 8.13e5 | 5.65e5 | 1.54e6 | 1.44e6 | inactive
Usp15-31 (Ubiquitin specific protease 15/31) | DRSC24986 | 8.26e5 | 8.20e5 | 8.49e5 | 9.72e5 | inactive
CG43078 | DRSC10608 | 8.84e5 | 1.06e6 | 1.44e6 | 1.58e6 | inactive

Further entries follow:
gene knocked down | dsRNA | firefly reporter light, replicate 1 | firefly reporter light, replicate 2 | Renilla control light, replicate 1 | Renilla control light, replicate 2 | outcome
CG32473 | DRSC14352 | 83678 | 1.71e5 | 1.52e6 | 3.02e6 | inactive
CG32473 | DRSC16446 | 1.12e5 | 75249 | 1.04e6 | 8.48e5 | inactive
CG11147 | DRSC02129 | 1.96e5 | 1.73e5 | 1.71e6 | 1.38e6 | inactive
CG1582 | DRSC19732 | 1.29e5 | 1.03e5 | 9.02e5 | 7.84e5 | inactive
insb (insensible) | DRSC06995 | 68586 | 68410 | 1.63e6 | 1.63e6 | inactive
insb (insensible) | DRSC24404 | 1.00e6 | 1.04e6 | 1.12e6 | 1.20e6 | inactive
CG3223 | DRSC15468 | 91002 | 1.25e5 | 1.48e6 | 1.48e6 | inactive
CG3223 | DRSC28290 | 3.67e5 | 5.27e5 | 1.28e6 | 2.19e6 | inactive
Atg8a (Autophagy-related 8a) | DRSC18024 | 4.24e5 | 4.39e5 | 2.67e6 | 2.62e6 | inactive
Atg8a (Autophagy-related 8a) | DRSC24298 | 7.84e5 | 1.28e6 | 1.04e6 | 1.35e6 | inactive
Ak1 (Adenylate kinase 1) | DRSC10248 | 2.52e5 | 2.01e5 | 2.62e6 | 2.25e6 | inactive
Ak1 (Adenylate kinase 1) | DRSC29837 | 5.23e5 | 3.74e5 | 9.87e5 | 1.19e6 | inactive
CG9861 | DRSC04576 | 8.61e5 | 7.52e5 | 1.08e6 | 1.04e6 | inactive
CG9861 | DRSC28876 | 4.10e5 | 4.45e5 | 1.37e6 | 1.41e6 | inactive
CG15306 | DRSC17993 | 3.06e5 | 3.85e5 | 2.51e6 | 3.52e6 | inactive
CG15306 | DRSC18240 | 3.91e5 | 4.70e5 | 2.24e6 | 2.93e6 | inactive
CG15306 | DRSC29972 | 4.12e5 | 4.07e5 | 7.10e5 | 6.23e5 | inactive
CG8303 | DRSC07140 | 57124 | 53774 | 1.32e6 | 1.32e6 | inactive
Parp16 (Poly(ADP-ribose) polymerase 16) | DRSC06597 | 75463 | 95719 | 1.89e6 | 1.89e6 | inactive
Parp16 (Poly(ADP-ribose) polymerase 16) | DRSC27048 | 3.71e5 | 2.29e5 | 8.37e5 | 7.29e5 | inactive
Spn28Dc (Serpin 28Dc) | DRSC03029 | 90654 | 90420 | 1.16e6 | 8.79e5 | inactive
Ugt301D1 (UDP-glycosyltransferase family 301 member D1) | DRSC02021 | 1.85e5 | 1.53e5 | 1.71e6 | 1.51e6 | inactive
Bap55 (Brahma associated protein 55kD) | DRSC07000 | 2.00e6 | 2.04e6 | 2.47e6 | 2.46e6 | inactive
Atg13 (Autophagy-related 13) | DRSC16228 | 1.53e5 | 1.36e5 | 2.89e6 | 2.40e6 | inactive
Vps24 (Vacuolar protein sorting 24) | DRSC12332 | 2.42e5 | 3.02e5 | 2.15e6 | 2.65e6 | inactive
Vps24 (Vacuolar protein sorting 24) | DRSC29224 | 5.42e5 | 5.95e5 | 1.30e6 | 9.84e5 | inactive
AOX1 (Aldehyde oxidase 1) | DRSC15339 | 1.15e5 | 1.01e5 | 3.92e5 | 5.57e5 | inactive
AOX1 (Aldehyde oxidase 1) | DRSC29234 | 4.80e5 | 7.13e5 | 7.62e5 | 1.06e6 | inactive
CG7692 | DRSC10902 | 2.22e5 | 2.31e5 | 1.80e6 | 1.49e6 | inactive
CG7692 | DRSC24040 | 9.44e5 | 8.71e5 | 1.09e6 | 1.12e6 | inactive
TwdlT (TweedleT) | DRSC21540 | 6.31e5 | 6.25e5 | 2.26e6 | 1.91e6 | inactive
Ldsdh1 (Lipid droplet subset dehydrogenase 1) | DRSC18219 | 5.92e5 | 5.25e5 | 4.67e6 | 4.21e6 | inactive
Ldsdh1 (Lipid droplet subset dehydrogenase 1) | DRSC26664 | 2.84e5 | 2.61e5 | 7.10e5 | 7.25e5 | inactive
CG13386 | DRSC02260 | 2.11e5 | 1.88e5 | 1.52e6 | 1.40e6 | inactive
CG13386 | DRSC28740 | 3.18e5 | 4.01e5 | 8.93e5 | 1.16e6 | inactive
Lcp65Ae | DRSC11212 | 1.37e5 | 1.97e5 | 1.27e6 | 1.27e6 | inactive
CG44005 + CG44004 | DRSC36534 | 9.52e5 | 7.94e5 | 1.74e6 | 1.66e6 | inactive
CG44005 + CG44004 | DRSC36535 | 6.61e5 | 6.83e5 | 1.67e6 | 1.64e6 | inactive
CG34323 | DRSC38796 | 1.02e6 | 9.63e5 | 2.04e6 | 1.70e6 | inactive
c(3)G (crossover suppressor on 3 of Gowen) | DRSC15245 | 85370 | 63126 | 8.01e5 | 5.92e5 | inactive
c(3)G (crossover suppressor on 3 of Gowen) | DRSC26062 | 3.42e5 | 3.32e5 | 3.80e5 | 6.72e5 | inactive
LeuRS (Leucyl-tRNA synthetase) | DRSC00581 | 1.25e5 | 96708 | 1.08e6 | 8.09e5 | inactive
CG18266 | DRSC02659 | 3.22e5 | 6.24e5 | 9.78e5 | 1.17e6 | inactive
Cbp20 (cap binding protein 20) | DRSC16601 | 51678 | 1.27e5 | 9.95e5 | 9.99e5 | inactive
Ir10a (Ionotropic receptor 10a) | DRSC18891 | 1.03e6 | 7.33e5 | 7.70e5 | 3.34e5 | inactive
Ir10a (Ionotropic receptor 10a) | DRSC19478 | 3.74e5 | 2.88e5 | 3.08e6 | 2.68e6 | inactive
Ir10a (Ionotropic receptor 10a) | DRSC19479 | 3.30e5 | 3.62e5 | 2.69e6 | 2.65e6 | inactive
CG10184 | DRSC14204 | 78646 | 63687 | 5.18e5 | 6.00e5 | inactive
CG7720 | DRSC16306 | 1.24e5 | 1.20e5 | 9.22e5 | 1.02e6 | inactive
CG7720 | DRSC16307 | 4.82e5 | 7.26e5 | 2.48e6 | 3.20e6 | inactive
